For test [1], the target named is His6-tagged MalT (Escherichia coli maltose system regulator), wild type (E. coli) (UniProt P06993). Description: SEC; analytical Superdex 200 PC3.2/30, room temperature; reducing conditions; without the inducer maltotriose (Supplementary Figure S9); both purified. In general terms: In gel filtration, larger molecules generally elute earlier.
The target is the same in test [2]. Description: condition: only at 10 μM (with ADP, no maltotriose); SEC; analytical Superdex 200 (column with a shifted calibration curve), same buffer with 0.1 mM ADP, no maltotriose; R171E variants at the indicated concentrations up to 60 μM; wt MalT at 10 μM as monomer reference; both purified.
Test [3] has the same target. Description: condition: only at low concentration (with ADP, no maltotriose); SEC; analytical Superdex 200, room temperature; Tris-HCl 50 mM pH 8.0, 10% sucrose, 0.033 M K3 citrate, 10 mM Mg acetate, 0.1 mM EDTA, 1 mM DTT, 0.1 mM ADP; no maltotriose; low protein concentration (2.5 μM); both purified.

Results are given in words; binding and its absence hold for the method and conditions named. Sequences can lack the tags named with a protein.

B1: His6-tagged MalT (Escherichia coli maltose system regulator), wild type (natural protein, E. coli, UniProt P06993 1-901, looked up)
chain: MLIPSKLSRPVRLDHTVVRERLLAKLSGANNFRLALITSPAGYGKTTLISQWAAGKNDIGWYSLDEGDNQQERFASYLIAAVQQATNGHCAICETMAQKRQYASLTSLFAQLFIELAEWHSPLYLVIDDYHLITNPVIHESMRFFIRHQPENLTLVVLSRNLPQLGIANLRVRDQLLEIGSQQLAFTHQEAKQFFDCRLSSPIEAAESSRICDDVSGWATALQLIALSARQNTHSAHKSARRLAGINASHLSDYLVDEVLDNVDLATRHFLLKSAILRSMNDALITRVTGEENGQMRLEEIERQGLFLQRMDDTGEWFCYHPLFGNFLRQRCQWELAAELPEIHRAAAESWMAQGFPSEAIHHALAAGDALMLRDILLNHAWSLFNHSELSLLEESLKALPWDSLLENPQLVLLQAWLMQSQHRYGEVNTLLARAEHEIKDIREDTMHAEFNALRAQVAINDGNPDEAERLAKLALEELPPGWFYSRIVATSVLGEVLHCKGELTRSLALMQQTEQMARQHDVWHYALWSLIQQSEILFAQGFLQTAWETQEKAFQLINEQHLEQLPMHEFLVRIRAQLLWAWARLDEAEASARSGIEVLSSYQPQQQLQCLAMLIQCSLARGDLDNARSQLNRLENLLGNGKYHSDWISNANKVRVIYWQMTGDKAAAANWLRHTAKPEFANNHFLQGQWRNIARAQILLGEFEPAEIVLEELNENARSLRLMSDLNRNLLLLNQLYWQAGRKSDAQRVLLDALKLANRTGFISHFVIEGEAMAQQLRQLIQLNTLPELEQHRAQRILREINQHHRHKFAHFDENFVERLLNHPEVPELIRTSPLTQREWQVLGLIYSGYSNEQIAGELEVAATTIKTHIRNLYQKLGVAHRQDAVQHAQQLLKMMGYGV
notes: MalT, E. coli, His-tagged version encoded by pOM206 (pET24a(+) derivative); Purified in two buffers (with ATP/KCl; or K3 citrate without nucleotide) to serve as control for the variants; Details of the plasmid are in the Supplementary Materials and Methods; also called wt MalT; wild-type MalT; source: E. coli pop8012 (a BL21 ΔmalT strain) with pOM206, purified (nickel-agarose chromatography, …)
With B1, the binding result is “no binding (condition: in the absence of maltotriose)” in test [1], “no binding” in test [2] and “no binding” in test [3].

The record behind these values is publication PMC6468293, “Double autoinhibition mechanism of signal transduction ATPases with numerous domains (STAND) with a tetratricopeptide repeat sensor” (Nucleic Acids Research, 2019).
